Values quoted from earlier work as cited in US9176114B2, “Cell culture model for acquired chemoresistance of chronic myelogenous leukemia and related methods for identifying agents to overcome resistance” (CITY OF HOPE, priority 2007, dated 2015).
Counter-ions that a name gives are not always drawn.

Tested on: K562 cells
Details: read-out: IC50 of apoptosis induction; STI-571 alone; cited from earlier work

## Cc1ccc(NC(=O)c2ccc(CN3CCN(C)CC3)cc2)cc1Nc1nccc(-c2cccnc2)n1 [STI-571, Imatinib mesylate]
  IC50: ~500 nM
